PubChem BioAssay AID1224826 | NIAID, 2016
The whole screen tested about 17,000 reagents; this is a part drawn at random. About 1,110 of all reagents (6.6%) were called active. 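Active means lowered or raised reporter signal; replicate intensities are raw and not normalised per plate.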 Further read-outs or replicates are left out here.

- Aim: 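Knock-downs that raise or lower Tnf reporter signal after endotoxin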 (primary screen)
- Cells: RAW264.7 G9 macrophages from mouse bearing reporters for p65 (GFP) and the Tnf promoter (mCherry)
- Knock-down reagent: siRNA pool against mouse genes, 100 nM
- Time to read-out: 16 h of LPS stimulation, after 2 days of siRNA transfection
- Challenge: bacterial lipopolysaccharide (Salmonella minnesota R595), 10 ng/ml
- Measured: 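Nuclear mCherry signal of the Tnf promoter reporter measured by imaging after background removal, scaled to each plate median and turned into robust z-scores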
- Direction: Tnf reporter robust z-score: higher = stronger Tnf promoter reporter signal after LPS
- Call rule: 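Called active when robust z-score is at most -1.3, matching the median of the Tlr4 knock-down control, or over 3; control wells and wells with under 50 cells never active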
- Meaning of the calls: active = Tnf reporter clearly lowered or raised; inactive = no clear change in Tnf reporter

Pcdhgc3 — Tnf reporter robust z-score: 1.22; fewer than 50 cells in well: enough cells in well; outcome: inactive
Itga2b — Tnf reporter robust z-score: 0.44; fewer than 50 cells in well: enough cells in well; outcome: inactive
Haus8 — Tnf reporter robust z-score: 0.41; fewer than 50 cells in well: enough cells in well; outcome: inactive
Commd2 — Tnf reporter robust z-score: 1.22; fewer than 50 cells in well: enough cells in well; outcome: inactive
Camkk2 — Tnf reporter robust z-score: -0.02; fewer than 50 cells in well: enough cells in well; outcome: inactive
Igf1r — Tnf reporter robust z-score: -1.09; fewer than 50 cells in well: enough cells in well; outcome: inactive
Spint2 — Tnf reporter robust z-score: -0.64; fewer than 50 cells in well: enough cells in well; outcome: inactive
Slc9a8 — Tnf reporter robust z-score: -1.56; fewer than 50 cells in well: enough cells in well; outcome: active
Or52z1 — Tnf reporter robust z-score: 0.01; fewer than 50 cells in well: enough cells in well; outcome: inactive
Ovol1 — fewer than 50 cells in well: fewer than 50 cells per well; well left out of calls; outcome: inactive
Serpinb10 — Tnf reporter robust z-score: 3.62; fewer than 50 cells in well: enough cells in well; outcome: active
Ubl4b — fewer than 50 cells in well: fewer than 50 cells per well; well left out of calls; outcome: inactive
Prss21 — Tnf reporter robust z-score: -0.98; fewer than 50 cells in well: enough cells in well; outcome: inactive
Hsd3b6 — fewer than 50 cells in well: fewer than 50 cells per well; well left out of calls; outcome: inactive
Qser1 — Tnf reporter robust z-score: -0.5; fewer than 50 cells in well: enough cells in well; outcome: inactive
Rhebl1 — Tnf reporter robust z-score: 0.85; fewer than 50 cells in well: enough cells in well; outcome: inactive
Zfp235 — fewer than 50 cells in well: fewer than 50 cells per well; well left out of calls; outcome: inactive
Proz — Tnf reporter robust z-score: 0.01; fewer than 50 cells in well: enough cells in well; outcome: inactive
Ptgr3 — Tnf reporter robust z-score: -0.46; fewer than 50 cells in well: enough cells in well; outcome: inactive
Kcnv1 — Tnf reporter robust z-score: 0.34; fewer than 50 cells in well: enough cells in well; outcome: inactive
Scarf2 — Tnf reporter robust z-score: -0.76; fewer than 50 cells in well: enough cells in well; outcome: inactive
Brwd1 — Tnf reporter robust z-score: -0.24; fewer than 50 cells in well: enough cells in well; outcome: inactive
Efemp1 — Tnf reporter robust z-score: -0.26; fewer than 50 cells in well: enough cells in well; outcome: inactive
5830411J07Rik — Tnf reporter robust z-score: -1.56; fewer than 50 cells in well: enough cells in well; outcome: active
Phf10 — Tnf reporter robust z-score: -0.51; fewer than 50 cells in well: enough cells in well; outcome: inactive
Trhr — Tnf reporter robust z-score: 0.51; fewer than 50 cells in well: enough cells in well; outcome: inactive
Akr1c14 — Tnf reporter robust z-score: -0.44; fewer than 50 cells in well: enough cells in well; outcome: inactive

An excerpt of the results above, as a working copy:
Scarf2 — Tnf reporter robust z-score: -0.76; fewer than 50 cells in well: enough cells in well; outcome: inactive
Brwd1 — Tnf reporter robust z-score: -0.24; fewer than 50 cells in well: enough cells in well; outcome: inactive
